Structures can show the parent of a compound that is named as a salt. This is one part of the list. The calls rarely recur for the same compound in another form.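 In K562 cells expressing nanoluciferase-fused kinases, luminescence was recorded at 4 h intervals between 2 and 18 h, normalized as percent of control with DMSO at 100% and a positive control at 0%. A significant (2 sigma) signal drop marks a time point as decreased. The authors' rule for a hit is not shown and takes in more than the number of time points.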
Experiments:
Assay in all cases: number of time points (of 5) at which kinase-Nluc abundance scored as decreased, DMSO-normalised (count); higher = more persistent destabilization
Conditions in all cases: K562; 2-18 h
[1] = biological target: CSNK1A1 (UniProt P48729)
[2] = biological target: CSNK1D (UniProt P48730)
[3] = biological target: DDR1 (UniProt Q08345)
[4] = biological target: DYRK1B (UniProt Q9Y463)
[5] = biological target: DYRK2 (UniProt Q92630)
[6] = biological target: EGFR (UniProt P00533)
[7] = biological target: EGFR_G719S (UniProt P00533)
[8] = biological target: EGFR_G719S_T790M (UniProt P00533)
[9] = biological target: EGFR_L718V (UniProt P00533)
[10] = biological target: EGFR_L858R (UniProt P00533)
[11] = biological target: EGFR_L861Q (UniProt P00533)
[12] = biological target: EGFR_T790M (UniProt P00533)
[13] = biological target: EPHA2 (UniProt P29317)
[14] = biological target: ERBB3 (UniProt P21860)
[15] = biological target: ERBB4_R711C (clone: ERBB4_mut) (UniProt Q15303)
[16] = biological target: ERN1 (UniProt O75460)
[17] = biological target: FGFR1 (UniProt P11362)
[18] = biological target: FGFR2 (UniProt P21802)
[19] = biological target: FGFR3 (UniProt P22607)
[20] = biological target: FGR (UniProt P09769)

Sequences of proteins named here, by UniProt entry; tags and fusion partners are left off. A change or cut given only in a name is not applied to a line headed by its entry.
UniProt P48729: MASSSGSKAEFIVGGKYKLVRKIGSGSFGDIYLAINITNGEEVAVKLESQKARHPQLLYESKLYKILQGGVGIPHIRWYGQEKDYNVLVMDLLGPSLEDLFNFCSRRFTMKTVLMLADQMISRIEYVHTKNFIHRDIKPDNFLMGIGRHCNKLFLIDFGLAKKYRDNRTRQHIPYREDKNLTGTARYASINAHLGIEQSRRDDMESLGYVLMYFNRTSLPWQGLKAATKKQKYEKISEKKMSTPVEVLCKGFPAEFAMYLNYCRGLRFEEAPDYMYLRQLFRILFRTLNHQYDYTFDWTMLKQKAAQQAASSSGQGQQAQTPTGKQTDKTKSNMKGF
UniProt P48730: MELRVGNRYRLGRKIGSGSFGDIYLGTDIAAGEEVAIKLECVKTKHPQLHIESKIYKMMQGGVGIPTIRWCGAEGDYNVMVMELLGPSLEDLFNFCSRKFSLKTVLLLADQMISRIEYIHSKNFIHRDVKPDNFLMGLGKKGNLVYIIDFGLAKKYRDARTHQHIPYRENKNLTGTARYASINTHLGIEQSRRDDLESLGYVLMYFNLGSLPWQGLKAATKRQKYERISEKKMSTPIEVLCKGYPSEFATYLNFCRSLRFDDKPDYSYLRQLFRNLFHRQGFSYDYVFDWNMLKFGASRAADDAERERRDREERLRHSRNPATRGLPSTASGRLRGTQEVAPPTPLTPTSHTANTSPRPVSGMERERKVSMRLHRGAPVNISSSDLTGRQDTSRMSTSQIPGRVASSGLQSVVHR
UniProt Q08345: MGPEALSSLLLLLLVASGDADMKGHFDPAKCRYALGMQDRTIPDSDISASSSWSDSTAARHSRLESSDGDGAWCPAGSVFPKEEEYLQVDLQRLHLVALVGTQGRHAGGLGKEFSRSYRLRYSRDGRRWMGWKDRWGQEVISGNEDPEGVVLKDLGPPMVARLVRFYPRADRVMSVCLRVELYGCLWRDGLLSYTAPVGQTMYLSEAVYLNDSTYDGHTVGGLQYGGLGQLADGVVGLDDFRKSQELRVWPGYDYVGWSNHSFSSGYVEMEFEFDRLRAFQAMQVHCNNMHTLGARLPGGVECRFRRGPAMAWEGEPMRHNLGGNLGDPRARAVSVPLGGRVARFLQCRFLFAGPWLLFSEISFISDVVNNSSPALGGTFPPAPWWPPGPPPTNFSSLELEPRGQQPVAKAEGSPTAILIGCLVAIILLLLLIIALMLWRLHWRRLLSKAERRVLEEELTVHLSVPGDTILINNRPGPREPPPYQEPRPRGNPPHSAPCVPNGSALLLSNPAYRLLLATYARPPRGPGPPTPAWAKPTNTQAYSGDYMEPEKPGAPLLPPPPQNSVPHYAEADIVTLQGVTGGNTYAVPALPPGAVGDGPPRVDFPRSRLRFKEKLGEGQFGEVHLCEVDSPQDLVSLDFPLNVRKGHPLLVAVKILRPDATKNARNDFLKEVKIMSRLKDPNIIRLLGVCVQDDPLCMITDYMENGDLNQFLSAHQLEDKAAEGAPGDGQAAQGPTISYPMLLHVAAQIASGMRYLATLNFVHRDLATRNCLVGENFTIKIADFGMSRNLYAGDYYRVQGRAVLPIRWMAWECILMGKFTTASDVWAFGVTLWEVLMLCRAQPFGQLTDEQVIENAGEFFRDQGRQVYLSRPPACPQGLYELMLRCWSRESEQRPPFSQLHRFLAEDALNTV
UniProt Q92630: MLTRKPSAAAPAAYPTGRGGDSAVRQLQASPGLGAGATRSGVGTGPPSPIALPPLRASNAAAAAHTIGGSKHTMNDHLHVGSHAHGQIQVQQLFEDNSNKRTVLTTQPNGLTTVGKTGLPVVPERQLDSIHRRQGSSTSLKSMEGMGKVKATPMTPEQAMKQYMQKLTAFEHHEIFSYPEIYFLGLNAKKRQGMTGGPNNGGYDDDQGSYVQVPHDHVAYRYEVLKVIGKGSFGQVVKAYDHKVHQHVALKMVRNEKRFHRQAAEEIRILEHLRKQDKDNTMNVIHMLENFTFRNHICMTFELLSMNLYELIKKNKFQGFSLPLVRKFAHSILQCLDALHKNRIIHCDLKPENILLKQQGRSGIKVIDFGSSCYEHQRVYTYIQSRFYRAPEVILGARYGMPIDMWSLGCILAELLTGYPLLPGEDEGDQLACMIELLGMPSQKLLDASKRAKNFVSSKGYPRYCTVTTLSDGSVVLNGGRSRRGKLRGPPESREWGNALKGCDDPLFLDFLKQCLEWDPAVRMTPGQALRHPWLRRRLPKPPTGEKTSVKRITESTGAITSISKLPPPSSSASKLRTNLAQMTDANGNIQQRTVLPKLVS
UniProt P29317, whole entry: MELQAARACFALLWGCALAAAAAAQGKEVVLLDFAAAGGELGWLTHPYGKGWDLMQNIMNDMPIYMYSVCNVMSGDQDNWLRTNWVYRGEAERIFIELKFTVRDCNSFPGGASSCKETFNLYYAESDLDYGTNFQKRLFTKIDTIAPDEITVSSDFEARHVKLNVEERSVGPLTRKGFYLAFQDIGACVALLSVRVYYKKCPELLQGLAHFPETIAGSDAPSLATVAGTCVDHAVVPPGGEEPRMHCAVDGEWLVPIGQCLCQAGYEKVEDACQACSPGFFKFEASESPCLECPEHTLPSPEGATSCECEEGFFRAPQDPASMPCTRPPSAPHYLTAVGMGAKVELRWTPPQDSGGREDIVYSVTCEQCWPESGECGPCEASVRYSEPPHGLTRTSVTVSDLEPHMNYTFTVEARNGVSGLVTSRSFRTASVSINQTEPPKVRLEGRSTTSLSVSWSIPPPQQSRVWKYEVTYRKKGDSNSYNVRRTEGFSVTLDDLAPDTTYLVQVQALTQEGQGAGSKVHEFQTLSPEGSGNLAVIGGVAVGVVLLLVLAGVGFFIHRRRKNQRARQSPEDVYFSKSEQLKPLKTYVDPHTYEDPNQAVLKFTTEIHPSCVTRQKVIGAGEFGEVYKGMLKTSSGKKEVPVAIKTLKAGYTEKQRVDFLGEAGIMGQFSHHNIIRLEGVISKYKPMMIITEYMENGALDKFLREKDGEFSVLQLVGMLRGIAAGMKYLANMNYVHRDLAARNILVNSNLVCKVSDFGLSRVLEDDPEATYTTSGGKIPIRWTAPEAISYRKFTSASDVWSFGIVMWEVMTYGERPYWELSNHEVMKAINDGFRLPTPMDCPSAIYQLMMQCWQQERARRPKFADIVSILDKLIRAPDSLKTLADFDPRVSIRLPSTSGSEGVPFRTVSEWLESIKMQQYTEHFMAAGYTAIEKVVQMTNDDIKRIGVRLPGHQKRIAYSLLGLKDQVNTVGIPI
UniProt P21860, whole entry: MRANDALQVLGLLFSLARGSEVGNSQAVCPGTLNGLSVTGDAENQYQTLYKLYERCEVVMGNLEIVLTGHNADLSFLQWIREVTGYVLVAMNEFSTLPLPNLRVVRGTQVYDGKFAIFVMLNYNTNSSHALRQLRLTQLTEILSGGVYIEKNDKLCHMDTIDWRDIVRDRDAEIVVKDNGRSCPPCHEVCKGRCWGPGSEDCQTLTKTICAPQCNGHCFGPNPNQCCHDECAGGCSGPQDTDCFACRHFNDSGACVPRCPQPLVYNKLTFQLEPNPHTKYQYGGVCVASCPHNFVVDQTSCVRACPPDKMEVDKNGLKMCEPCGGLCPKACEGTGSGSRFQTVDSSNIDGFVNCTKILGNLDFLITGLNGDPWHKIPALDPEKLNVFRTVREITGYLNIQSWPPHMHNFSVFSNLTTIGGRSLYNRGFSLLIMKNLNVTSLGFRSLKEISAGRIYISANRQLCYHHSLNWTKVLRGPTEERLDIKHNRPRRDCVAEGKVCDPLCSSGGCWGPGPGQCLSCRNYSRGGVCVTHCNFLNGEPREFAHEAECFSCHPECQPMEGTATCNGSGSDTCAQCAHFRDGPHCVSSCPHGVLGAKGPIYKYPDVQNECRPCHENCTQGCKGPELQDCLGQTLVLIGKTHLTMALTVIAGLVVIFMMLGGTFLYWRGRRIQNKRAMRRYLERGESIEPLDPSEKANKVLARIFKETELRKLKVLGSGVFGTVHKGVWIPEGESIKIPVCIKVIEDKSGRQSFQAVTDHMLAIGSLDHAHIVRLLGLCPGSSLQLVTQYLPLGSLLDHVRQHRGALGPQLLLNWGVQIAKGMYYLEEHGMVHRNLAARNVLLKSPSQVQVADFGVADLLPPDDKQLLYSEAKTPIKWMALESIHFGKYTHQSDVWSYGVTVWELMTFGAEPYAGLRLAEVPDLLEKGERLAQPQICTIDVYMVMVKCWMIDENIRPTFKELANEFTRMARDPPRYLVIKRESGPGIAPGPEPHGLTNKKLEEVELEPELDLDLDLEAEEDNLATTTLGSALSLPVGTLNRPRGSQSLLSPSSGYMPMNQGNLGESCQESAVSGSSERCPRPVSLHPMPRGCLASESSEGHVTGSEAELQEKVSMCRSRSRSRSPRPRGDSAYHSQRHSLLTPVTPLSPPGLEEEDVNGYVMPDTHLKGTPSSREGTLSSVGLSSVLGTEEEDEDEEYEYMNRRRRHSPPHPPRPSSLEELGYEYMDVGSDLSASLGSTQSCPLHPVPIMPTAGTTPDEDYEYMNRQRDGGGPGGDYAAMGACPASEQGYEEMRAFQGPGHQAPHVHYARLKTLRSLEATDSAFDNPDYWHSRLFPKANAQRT
UniProt P11362, whole entry, looked up: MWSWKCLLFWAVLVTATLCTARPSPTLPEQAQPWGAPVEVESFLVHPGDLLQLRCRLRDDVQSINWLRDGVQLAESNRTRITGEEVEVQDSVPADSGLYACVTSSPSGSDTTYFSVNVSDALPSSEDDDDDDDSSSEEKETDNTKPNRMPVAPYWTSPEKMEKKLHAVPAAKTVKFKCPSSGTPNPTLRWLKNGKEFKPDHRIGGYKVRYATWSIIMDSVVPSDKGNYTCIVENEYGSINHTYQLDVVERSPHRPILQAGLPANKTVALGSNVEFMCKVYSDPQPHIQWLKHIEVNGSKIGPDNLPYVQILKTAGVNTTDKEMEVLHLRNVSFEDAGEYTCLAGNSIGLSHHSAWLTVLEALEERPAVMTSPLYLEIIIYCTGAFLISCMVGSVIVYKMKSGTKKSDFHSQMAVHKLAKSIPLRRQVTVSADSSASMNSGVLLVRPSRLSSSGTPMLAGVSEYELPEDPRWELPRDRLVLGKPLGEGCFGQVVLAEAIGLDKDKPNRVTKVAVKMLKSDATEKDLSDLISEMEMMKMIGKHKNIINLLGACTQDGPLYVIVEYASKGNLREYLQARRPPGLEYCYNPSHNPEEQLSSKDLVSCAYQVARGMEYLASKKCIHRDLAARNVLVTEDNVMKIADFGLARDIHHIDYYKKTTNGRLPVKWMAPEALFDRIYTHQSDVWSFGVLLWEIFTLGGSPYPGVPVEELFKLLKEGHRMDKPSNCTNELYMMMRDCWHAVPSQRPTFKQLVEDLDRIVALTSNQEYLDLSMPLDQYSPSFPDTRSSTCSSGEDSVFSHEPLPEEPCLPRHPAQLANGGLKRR
UniProt P21802, whole entry, looked up: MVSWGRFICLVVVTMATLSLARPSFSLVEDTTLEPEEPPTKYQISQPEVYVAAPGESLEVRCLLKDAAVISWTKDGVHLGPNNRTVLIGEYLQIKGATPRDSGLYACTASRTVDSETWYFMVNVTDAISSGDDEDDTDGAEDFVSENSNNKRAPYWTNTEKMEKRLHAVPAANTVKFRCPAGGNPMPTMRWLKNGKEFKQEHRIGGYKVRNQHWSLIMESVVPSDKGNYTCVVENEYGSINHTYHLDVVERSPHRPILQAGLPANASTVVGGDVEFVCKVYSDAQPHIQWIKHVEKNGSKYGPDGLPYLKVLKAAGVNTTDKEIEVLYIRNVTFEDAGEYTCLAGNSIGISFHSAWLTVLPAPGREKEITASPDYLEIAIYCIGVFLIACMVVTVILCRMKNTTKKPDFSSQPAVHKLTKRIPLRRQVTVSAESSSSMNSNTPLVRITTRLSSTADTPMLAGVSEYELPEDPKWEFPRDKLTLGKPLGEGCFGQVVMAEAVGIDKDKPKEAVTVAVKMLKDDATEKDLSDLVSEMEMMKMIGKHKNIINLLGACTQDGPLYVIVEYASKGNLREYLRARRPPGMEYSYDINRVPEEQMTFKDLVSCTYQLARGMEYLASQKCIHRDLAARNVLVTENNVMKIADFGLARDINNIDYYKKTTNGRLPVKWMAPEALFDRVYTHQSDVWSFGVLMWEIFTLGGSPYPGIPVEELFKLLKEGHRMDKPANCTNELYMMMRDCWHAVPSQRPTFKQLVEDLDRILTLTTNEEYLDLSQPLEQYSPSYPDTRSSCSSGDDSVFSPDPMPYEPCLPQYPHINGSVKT

Measured: number of time points

C[C@@H]1CCNC(=O)c2cc3ccc(C(=O)Nc4nc5ccccc5n4CCCN(C)C)cc3n21 (10 µM)
0: all assays above

O=c1cc(N2CCOCC2)nc2c3ccccc3ccn12 [Compound 401] (10 µM)
0: all assays above

CC(C)C[C@@H](C(=O)Nc1ccn(C[C@@H](O)CO)n1)N1CC(Oc2ccccc2Cl)=CC1=O [Dorzagliatin] (10 µM)
0: all assays above

A draw from above in order of heavy-atom count, ascending.
O=c1cc(N2CCOCC2)nc2c3ccccc3ccn12 [Compound 401] (10 µM)
0: all assays above

CC(C)C[C@@H](C(=O)Nc1ccn(C[C@@H](O)CO)n1)N1CC(Oc2ccccc2Cl)=CC1=O [Dorzagliatin] (10 µM)
0: all assays above

C[C@@H]1CCNC(=O)c2cc3ccc(C(=O)Nc4nc5ccccc5n4CCCN(C)C)cc3n21 (10 µM)
0: all assays above

Later entries:

CN1CC[C@@H](c2c(O)cc(O)c3c(=O)cc(-c4ccc(C(F)(F)F)cc4Cl)oc23)[C@@H]1CO [Voruciclib (hydrochloride)] (10 µM)
0: all assays above

CC[C@@](C)(Nc1ccnc(-c2c[nH]c3ncccc23)n1)C(=O)NCC(F)(F)F [Decernotinib] (10 µM)
0: all assays above

Cn1cnc([N+](=O)[O-])c1C[N+](C)(C)C/C=C/C(=O)Nc1cc2c(Nc3ccc(Cl)c(Br)c3)ncnc2cn1 [Tarloxotinib (bromide)] (10 µM)
0: all assays above

CS(=O)(=O)c1ccc(-c2cnc(N)c(-c3ccc(C(F)(F)F)nc3)c2)cc1 (10 µM)
0: all assays above

O=c1cc(-c2cccc3c2Sc2ccccc2S3)oc(N2CCOCC2)c1 (10 µM)
0: all assays above

COc1c(Nc2cc(C)[nH]n2)nc(Sc2ccc(S(=O)(=O)Cc3cccc([N+](=O)[O-])c3F)cc2F)nc1N1CCCCC1 [Centrinone-B] (2.5 µM)
0: all assays above

O=C1NC(=Nc2c(Cl)cccc2Cl)S/C1=C\c1ccc2nccnc2c1 (2.5 µM)
4: [18]
2: [17]
0: all other assays above

Cc1ccn2c(C(=O)C(=O)c3ccccc3)c(-c3ccccc3)nc2c1 (10 µM)
0: all assays above

COc1ccc(N=Nc2c(N)n[nH]c2N)cc1 (10 µM)
0: all assays above

CNc1cc(Nc2cccn(-c3ccccn3)c2=O)nn2c(C(=O)N[C@@H]3C[C@@H]3F)cnc12 (2.5 µM)
0: all assays above

FC(F)(F)c1ccc(/C=C/c2nc(COc3ccc(CCCCn4ccnn4)cc3)co2)cc1 [Mubritinib] (10 µM)
2: [15]
1: [3] | [10] | [11] | [18]
0: all other assays above

O=c1[nH]c(C2CCCN2)nc2c1oc1ccc(Cl)cc12 (stereo not given) [XL413 (hydrochloride)] (10 µM)
0: all assays above

Oc1cc(O)c2c(c1)OC1(c3ccc(O)c(O)c3)Oc3cc(O)c4c(c3C2C1O)OC(c1ccc(O)c(O)c1)C(O)C4 (stereo not given) [Procyanidin A1] (10 µM)
0: all assays above

— the supplement of paper PMC12823440, “Inhibitors supercharge kinase turnover through native proteolytic circuits” (Nature, 2025)
